In this test the target is NF-κB p65 (mouse) (UniProt Q04207). Kind of test: co-IP; murine Rxrα and p65; cells, constructs and precipitated protein not told.

The chains behind the UniProt entries cited, without tags or fusion partners.
UniProt Q04207: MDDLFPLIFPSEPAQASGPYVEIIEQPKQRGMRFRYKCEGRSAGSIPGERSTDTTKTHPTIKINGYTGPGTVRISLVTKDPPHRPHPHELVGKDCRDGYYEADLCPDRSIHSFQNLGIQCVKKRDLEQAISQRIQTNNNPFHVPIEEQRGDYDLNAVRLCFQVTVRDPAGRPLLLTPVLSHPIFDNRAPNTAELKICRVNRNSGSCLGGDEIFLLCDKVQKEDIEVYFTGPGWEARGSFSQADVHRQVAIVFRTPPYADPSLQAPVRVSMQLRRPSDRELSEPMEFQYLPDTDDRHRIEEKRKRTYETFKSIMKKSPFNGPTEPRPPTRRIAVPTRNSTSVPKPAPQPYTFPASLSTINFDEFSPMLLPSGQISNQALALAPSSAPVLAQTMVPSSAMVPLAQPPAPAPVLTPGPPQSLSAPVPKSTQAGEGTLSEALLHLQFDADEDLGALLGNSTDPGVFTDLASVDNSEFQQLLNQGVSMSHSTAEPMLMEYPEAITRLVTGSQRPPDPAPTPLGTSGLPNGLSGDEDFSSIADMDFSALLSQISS

These are yes or no findings as the source states them, for the method shown. In cells and extracts the contact can be indirect. Some entries that bind do so weakly or less than the wild type.

B1: retinoid X receptor α (Rxrα) (protein, UniProt P28700 1-467)
chain: MDTKHFLPLDFSTQVNSSSLNSPTGRGSMAVPSLHPSLGPGIGSPLGSPGQLHSPISTLSSPINGMGPPFSVISSPMGPHSMSVPTTPTLGFGTGSPQLNSPMNPVSSTEDIKPPLGLNGVLKVPAHPSGNMASFTKHICAICGDRSSGKHYGVYSCEGCKGFFKRTVRKDLTYTCRDNKDCLIDKRQRNRCQYCRYQKCLAMGMKREAVQEERQRGKDRNENEVESTSSANEDMPVEKILEAELAVEPKTETYVEANMGLNPSSPNDPVTNICQAADKQLFTLVEWAKRIPHFSELPLDDQVILLRAGWNELLIASFSHRSIAVKDGILLATGLHVHRNSAHSAGVGAIFDRVLTELVSKMRDMQMDKTELGCLRAIVLFNPDSKGLSNPAEVEALREKVYASLEAYCKHKYPEQPGRFAKLLLRLPALRSIGLKCLEHLFFFKLIGDTPIDTFLMEMLEAPHQAT
For B1, the binding entry is listed as “binds”.

Values taken from publication PMC7681083.
